According to US9782345B2, “Ocular composition and method” (Jade Therapeutics, Inc, priority 2013, dated 2017):
At least one compound was matched to its structure with a doubt left.

Assay: Moxifloxacin release study from CMHA-S/PEGDA films in PBS (UV absorbance at 293 nm)
Type: physicochemical

## COc1c(N2C[C@@H]3CCCN[C@@H]3C2)c(F)cc2c(=O)c(C(=O)O)cn(C3CC3)c12 [moxifloxacin]
75 μg per film, PBS, through day 3
  moxifloxacin released (share of load): Fifty four
75 μg per film, thiol to acrylate 1.5, PBS, over 7 days (FIG. 7)
  moxifloxacin released: 40.5 µg
150 μg/film, at Day 3 (FIG. 2)
  release of moxifloxacin (share of load): about 27%
150 μg/film, thiol to acrylate ratios 1.5, 2.0, 2.5, PBS, at Day 3 (FIG. 2)
  accumulated released amount of moxifloxacin: more than 40 μg
